Assay results from patent US10774143 (LA JOLLA INSTITUTE FOR ALLERGY AND IMMUNOLOGY, dated 2020).
Results are given in words; binding and its absence hold for the method and conditions named. For some of these results: Binding seen in cells or lysates may run through a third protein. Some binding calls cover weakened binding; strength is not graded here.

By UniProt entry, the sequences of proteins in these tests, tags left out. Where a name states a change or a piece, a line headed by the entry shows the natural chain unless it says otherwise.
UniProt Q14643: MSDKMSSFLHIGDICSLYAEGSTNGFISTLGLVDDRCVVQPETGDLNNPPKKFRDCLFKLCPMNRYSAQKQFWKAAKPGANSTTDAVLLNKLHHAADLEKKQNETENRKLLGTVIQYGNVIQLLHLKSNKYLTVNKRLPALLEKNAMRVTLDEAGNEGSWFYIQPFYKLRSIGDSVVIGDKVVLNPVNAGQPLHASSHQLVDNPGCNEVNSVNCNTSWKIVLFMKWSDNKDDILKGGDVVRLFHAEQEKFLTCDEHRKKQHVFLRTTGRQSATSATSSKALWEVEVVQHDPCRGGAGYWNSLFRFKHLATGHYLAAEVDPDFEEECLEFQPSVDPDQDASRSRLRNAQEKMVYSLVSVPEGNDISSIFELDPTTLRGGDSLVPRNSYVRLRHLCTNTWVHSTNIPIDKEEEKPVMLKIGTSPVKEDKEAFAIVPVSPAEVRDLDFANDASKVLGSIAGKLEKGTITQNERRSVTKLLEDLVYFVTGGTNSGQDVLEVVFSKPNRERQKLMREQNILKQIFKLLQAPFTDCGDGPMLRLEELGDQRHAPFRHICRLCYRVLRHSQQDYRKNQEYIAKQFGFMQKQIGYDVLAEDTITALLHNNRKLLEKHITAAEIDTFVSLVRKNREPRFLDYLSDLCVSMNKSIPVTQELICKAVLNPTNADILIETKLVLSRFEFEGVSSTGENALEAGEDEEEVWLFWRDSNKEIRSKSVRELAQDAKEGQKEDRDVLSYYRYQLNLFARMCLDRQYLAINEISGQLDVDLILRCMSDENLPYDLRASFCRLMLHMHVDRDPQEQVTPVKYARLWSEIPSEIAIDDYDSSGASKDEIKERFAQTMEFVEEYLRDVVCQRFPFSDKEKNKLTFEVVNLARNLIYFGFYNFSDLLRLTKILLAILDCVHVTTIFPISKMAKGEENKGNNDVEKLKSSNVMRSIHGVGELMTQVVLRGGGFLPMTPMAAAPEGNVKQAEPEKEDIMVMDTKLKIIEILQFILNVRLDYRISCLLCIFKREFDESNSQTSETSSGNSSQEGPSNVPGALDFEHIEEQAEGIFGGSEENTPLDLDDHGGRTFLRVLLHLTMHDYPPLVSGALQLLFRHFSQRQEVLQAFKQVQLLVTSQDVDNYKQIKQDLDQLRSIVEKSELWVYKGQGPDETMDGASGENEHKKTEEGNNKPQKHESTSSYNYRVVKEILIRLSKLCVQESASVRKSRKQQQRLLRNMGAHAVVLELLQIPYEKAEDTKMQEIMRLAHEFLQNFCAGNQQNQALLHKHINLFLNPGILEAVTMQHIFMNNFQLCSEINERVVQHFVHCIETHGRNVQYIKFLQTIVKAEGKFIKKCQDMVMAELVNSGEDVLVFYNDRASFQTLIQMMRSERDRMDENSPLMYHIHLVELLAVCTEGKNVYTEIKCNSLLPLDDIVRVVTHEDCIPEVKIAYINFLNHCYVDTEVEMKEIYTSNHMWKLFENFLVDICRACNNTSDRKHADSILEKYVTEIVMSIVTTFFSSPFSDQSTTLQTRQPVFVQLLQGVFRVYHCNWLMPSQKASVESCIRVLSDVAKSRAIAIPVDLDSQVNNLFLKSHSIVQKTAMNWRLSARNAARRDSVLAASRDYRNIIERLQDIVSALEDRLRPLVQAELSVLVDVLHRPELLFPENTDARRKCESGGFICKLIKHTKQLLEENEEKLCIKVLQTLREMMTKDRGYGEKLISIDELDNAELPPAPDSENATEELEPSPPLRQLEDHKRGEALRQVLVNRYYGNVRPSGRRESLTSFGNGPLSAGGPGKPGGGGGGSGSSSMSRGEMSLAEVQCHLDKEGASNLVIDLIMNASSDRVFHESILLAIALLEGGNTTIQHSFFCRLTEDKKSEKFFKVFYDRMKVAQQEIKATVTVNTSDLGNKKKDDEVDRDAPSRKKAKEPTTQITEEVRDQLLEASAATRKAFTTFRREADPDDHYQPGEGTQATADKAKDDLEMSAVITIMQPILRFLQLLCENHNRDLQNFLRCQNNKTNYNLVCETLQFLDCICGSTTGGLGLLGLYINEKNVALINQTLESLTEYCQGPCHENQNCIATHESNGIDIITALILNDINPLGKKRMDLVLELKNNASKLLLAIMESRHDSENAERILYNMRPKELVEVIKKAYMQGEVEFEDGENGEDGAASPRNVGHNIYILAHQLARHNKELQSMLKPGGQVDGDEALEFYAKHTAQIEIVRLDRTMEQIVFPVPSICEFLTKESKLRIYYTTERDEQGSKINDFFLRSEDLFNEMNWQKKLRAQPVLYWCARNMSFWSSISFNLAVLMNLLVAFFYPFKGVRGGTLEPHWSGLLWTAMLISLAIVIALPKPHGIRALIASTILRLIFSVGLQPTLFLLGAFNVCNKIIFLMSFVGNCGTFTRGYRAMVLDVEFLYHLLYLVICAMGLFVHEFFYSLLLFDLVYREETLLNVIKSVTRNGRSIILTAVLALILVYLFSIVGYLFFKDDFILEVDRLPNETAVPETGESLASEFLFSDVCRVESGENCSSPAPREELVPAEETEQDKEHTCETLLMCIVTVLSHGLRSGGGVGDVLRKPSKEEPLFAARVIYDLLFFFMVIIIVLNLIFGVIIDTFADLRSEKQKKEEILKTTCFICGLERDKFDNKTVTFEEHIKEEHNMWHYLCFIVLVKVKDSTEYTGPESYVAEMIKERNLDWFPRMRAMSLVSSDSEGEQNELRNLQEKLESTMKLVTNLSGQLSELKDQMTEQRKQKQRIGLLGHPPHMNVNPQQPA
UniProt P11881: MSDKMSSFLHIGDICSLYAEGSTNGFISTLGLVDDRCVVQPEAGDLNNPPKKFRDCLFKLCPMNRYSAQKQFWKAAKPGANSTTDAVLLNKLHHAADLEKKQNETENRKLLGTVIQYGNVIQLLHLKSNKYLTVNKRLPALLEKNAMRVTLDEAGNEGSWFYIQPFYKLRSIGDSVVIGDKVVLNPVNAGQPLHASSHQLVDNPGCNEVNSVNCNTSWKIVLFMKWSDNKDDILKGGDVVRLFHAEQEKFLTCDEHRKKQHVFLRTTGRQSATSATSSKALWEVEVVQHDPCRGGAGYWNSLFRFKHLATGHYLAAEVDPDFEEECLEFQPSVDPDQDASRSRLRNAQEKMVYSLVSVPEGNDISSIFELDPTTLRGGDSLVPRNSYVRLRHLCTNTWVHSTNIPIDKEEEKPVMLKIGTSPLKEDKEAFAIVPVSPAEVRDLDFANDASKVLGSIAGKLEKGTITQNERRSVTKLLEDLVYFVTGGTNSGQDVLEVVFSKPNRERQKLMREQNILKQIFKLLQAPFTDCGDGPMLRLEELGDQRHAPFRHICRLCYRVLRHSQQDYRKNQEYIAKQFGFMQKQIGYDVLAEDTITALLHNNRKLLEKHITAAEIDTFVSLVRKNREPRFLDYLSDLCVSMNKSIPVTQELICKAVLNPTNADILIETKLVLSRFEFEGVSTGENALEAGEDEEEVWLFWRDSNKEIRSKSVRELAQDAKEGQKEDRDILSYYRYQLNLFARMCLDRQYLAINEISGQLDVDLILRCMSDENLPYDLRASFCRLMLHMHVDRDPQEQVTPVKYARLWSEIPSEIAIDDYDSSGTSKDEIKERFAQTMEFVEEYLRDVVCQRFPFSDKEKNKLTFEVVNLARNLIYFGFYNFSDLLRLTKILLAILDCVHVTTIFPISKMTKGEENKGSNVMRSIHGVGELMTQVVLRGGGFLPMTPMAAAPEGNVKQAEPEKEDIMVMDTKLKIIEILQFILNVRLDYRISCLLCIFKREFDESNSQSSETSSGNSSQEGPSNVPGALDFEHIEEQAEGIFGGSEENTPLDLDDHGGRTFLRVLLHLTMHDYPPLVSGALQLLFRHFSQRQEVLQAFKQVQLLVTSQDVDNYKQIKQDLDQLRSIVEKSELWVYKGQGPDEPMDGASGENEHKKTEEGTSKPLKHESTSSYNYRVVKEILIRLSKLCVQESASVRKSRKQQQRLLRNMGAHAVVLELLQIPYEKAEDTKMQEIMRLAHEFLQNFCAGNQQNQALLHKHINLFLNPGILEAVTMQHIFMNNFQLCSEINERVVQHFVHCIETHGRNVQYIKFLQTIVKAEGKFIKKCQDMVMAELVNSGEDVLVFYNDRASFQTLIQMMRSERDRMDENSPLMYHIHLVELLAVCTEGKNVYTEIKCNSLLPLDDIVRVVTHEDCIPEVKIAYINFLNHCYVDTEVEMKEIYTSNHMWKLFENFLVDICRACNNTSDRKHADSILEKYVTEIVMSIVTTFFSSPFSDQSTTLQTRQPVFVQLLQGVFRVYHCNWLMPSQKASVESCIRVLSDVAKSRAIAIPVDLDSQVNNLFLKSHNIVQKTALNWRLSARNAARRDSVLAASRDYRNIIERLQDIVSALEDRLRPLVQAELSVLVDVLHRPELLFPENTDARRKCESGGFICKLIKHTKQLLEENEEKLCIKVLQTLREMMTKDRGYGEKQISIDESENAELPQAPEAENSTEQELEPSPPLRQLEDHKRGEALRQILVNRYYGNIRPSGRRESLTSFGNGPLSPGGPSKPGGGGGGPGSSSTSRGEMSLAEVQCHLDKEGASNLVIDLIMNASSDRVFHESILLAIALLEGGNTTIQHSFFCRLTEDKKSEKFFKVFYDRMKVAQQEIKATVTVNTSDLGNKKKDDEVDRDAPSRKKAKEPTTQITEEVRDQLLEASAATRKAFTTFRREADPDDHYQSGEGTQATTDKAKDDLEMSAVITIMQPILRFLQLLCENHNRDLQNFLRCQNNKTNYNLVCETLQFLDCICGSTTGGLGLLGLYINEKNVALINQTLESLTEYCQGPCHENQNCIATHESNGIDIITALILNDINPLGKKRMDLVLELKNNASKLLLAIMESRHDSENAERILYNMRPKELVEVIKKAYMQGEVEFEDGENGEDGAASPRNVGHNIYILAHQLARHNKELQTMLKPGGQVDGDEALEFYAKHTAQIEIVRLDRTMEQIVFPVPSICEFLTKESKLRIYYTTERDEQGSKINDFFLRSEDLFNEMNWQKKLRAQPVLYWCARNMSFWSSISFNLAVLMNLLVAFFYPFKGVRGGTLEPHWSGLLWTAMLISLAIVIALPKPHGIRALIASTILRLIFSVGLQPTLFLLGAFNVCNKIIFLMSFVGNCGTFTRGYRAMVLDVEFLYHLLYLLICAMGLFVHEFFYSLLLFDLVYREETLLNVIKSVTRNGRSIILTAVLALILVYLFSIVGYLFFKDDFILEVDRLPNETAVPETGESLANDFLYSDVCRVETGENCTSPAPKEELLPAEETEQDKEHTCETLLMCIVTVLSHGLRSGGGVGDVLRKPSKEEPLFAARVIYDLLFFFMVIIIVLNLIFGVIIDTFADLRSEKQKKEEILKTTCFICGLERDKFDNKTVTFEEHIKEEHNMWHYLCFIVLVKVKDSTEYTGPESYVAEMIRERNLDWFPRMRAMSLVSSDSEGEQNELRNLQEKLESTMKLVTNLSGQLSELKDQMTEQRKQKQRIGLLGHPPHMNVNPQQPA
UniProt Q8C2K1: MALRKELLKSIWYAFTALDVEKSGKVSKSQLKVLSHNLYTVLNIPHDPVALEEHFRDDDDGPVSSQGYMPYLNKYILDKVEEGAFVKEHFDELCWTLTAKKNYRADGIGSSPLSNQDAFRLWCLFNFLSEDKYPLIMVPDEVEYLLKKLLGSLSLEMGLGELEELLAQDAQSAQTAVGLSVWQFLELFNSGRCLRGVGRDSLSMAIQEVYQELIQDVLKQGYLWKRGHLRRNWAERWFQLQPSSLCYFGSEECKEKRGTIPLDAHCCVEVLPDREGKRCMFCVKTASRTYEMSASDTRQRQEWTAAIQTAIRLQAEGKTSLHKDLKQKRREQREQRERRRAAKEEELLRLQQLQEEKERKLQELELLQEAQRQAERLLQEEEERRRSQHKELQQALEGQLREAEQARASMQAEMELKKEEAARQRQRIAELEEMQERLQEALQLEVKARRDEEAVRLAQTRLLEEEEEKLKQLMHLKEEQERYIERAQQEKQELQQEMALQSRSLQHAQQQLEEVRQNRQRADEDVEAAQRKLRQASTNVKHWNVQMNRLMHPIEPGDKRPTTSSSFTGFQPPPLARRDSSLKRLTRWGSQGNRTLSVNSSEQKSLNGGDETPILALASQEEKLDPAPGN

Columns and labels:
[1] = target: Flag-tagged IP3R1-f2.1 (residues 346-490) (Homo sapiens (Human)) (UniProt Q14643); assay: co-IP from Jurkat-TAg cells cotransfected with Flag-IP3R1-f2.1
[2] = target: GST-IP3R1-f.A fusion protein (IP3R1 residues 346-441; printed as 366-441 in Example 2) (Homo sapiens (Human)) (UniProt Q14643); assay: GST pull-down from T cell lysates
[3] = target: inositol triphosphate receptor type I (IP3R1), endogenous mouse protein (mouse) (UniProt P11881); assay: SLAT IP and anti-IP3R1 immunoblot
[4] = target: GST-IP3R1-f.A fusion protein (IP3R1 residues 346-441; printed as 366-441 in Example 2) (Homo sapiens (Human)) (UniProt Q14643); assay: GST pull-down from lysates of stimulated MCC-T cells
[5] = target: GST-IP3R1-f2.1 fusion protein (IP3R1 residues 346-490) (Homo sapiens (Human)) (UniProt Q14643); assay: as above
[6] = target: inositol triphosphate receptor type I (IP3R1), endogenous mouse protein (mouse) (UniProt P11881); assay: co-IP and proximity ligation, closing sentence of Example 1
[7] = target: inositol triphosphate receptor type I (IP3R1), endogenous mouse protein (mouse) (UniProt P11881); assay: co-IP from anti-CD3/CD28-stimulated CD4+ T cells; close proximity also shown by Duolink proximity ligation assay

Row | binding [1] | binding [2] | binding [3] | binding [4] | binding [5] | binding [6] | binding [7] | Substance
1 | binds |  |  |  |  |  |  | Myc-tagged SLAT PH domain (from UniProt Q9H4E7 217-312)
2 |  | binds | binds | binds | binds | binds | binds | SWAP-70-like adaptor of T cells (SLAT), endogenous mouse protein (from UniProt Q8C2K1 1-630)
